{
  "source": "patent US9474749B2",
  "about": "(priority 2004, dated 2016)",
  "key": {"[1]": {"system": "SK-N-SH neuroblastoma cell line", "test": "Cellular morphology (Form Factor) of neuroblastoma cells", "assay_type": "cell-based, human", "conditions": "p<0.003", "protocol": "Cell viability was determined via Trypan blue exclusion. An inverted light microscope (Nikon) with a phase-contrast filter was used to observe the cells. Pictures of the cells were taken via a digital camera (Optronix) attached to the microscope ocular. Images were uploaded onto ImagePro Plus Software (Applied Biosystems), where cell viability was calculated based on both the number of cells covering the field and the cells that present as dead from the stain. In addition, ImagePro Plus was used for determining cellular morphology. The area and perimeter were found and used in the formula (4π*Area)/(Perimeter)^2, resulting in a value between 0 (a straight line) and 1 (a perfect circle)."}},
  "note": "Read-outs that look alike come from different tables or passages of the source.",
  "data": [
    {"smiles": "CN1CC[C@]23c4c5ccc(O)c4O[C@H]2[C@@H](O)C=C[C@H]3[C@H]1C5", "note": "[Morphine, morphine]", "values": [
      {"measurement": "NO release capacity", "setting": "SH-SY5Y cells; high dose 10^−6 M", "value": "lost their initial levels of NO release"},
      {"measurement": "NO release capacity", "setting": "SH-SY5Y cells; low dose 10^−8 M", "value": "remained capable of releasing NO"},
      {"measurement": "Form Factor, effect against rotenone toxicity", "setting": "[1]", "value": "produced a neuroprotective effect"}
    ]}
  ]
}
